Counter-ions that a name gives are not always drawn. This is one part of the list. Hit calls seldom repeat between salt and free forms of one compound.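 Kinases were expressed as nanoluciferase fusions in K562 cells and luminescence was read every 4 h between 2 and 18 h as percent of control, DMSO set to 100% and a positive control to 0%. A time point counts as decreased when the signal drops significantly (2 sigma). The hit call is the authors' own, does not follow from the count of time points alone, and its rule is not shown.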
What follows are compounds tested against CHEK2 (UniProt O96017) (assay: kinase-Nluc reporter destabilization hit call (1 = scored as downregulated) (binary); higher = compound decreases kinase abundance). Conditions: 10 µM; K562; 2-18 h.

Sequences of proteins named here, by UniProt entry; tags and fusion partners are left off.
UniProt O96017, whole entry: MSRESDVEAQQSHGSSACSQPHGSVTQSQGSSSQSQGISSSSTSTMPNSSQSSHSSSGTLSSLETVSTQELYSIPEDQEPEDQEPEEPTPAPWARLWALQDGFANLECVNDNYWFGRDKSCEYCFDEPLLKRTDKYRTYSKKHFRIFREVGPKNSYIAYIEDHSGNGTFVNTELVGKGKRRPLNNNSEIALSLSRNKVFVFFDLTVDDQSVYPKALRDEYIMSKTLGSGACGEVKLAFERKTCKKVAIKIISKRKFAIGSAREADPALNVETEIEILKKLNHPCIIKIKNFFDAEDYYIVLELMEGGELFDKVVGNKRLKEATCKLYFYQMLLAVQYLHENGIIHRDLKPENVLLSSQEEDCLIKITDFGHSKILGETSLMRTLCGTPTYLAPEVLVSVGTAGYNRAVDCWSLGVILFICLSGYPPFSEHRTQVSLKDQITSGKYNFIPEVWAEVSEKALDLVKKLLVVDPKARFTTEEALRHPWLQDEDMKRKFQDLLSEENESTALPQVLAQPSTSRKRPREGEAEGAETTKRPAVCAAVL

kinase-Nluc reporter destabilization hit call, inactive:
CCS(=O)(=O)N1CCN(c2ccc(Nc3ncc(C(N)=O)c(NC4CC4)n3)cc2)CC1 [Cerdulatinib (hydrochloride)] 0
C[C@@H](N)c1ccc(C(=O)Nc2ccnc3[nH]ccc23)cc1 0
COc1ncc(F)cc1CNc1ccc(Cc2c[nH]c3ncc(C)cc23)c(F)n1 0
CCS(=O)(=O)N1CC(CC#N)(n2cc(-c3ncnc4[nH]ccc34)cn2)C1 [Baricitinib (phosphate)] 0
COC(=O)[C@H](CC(C)C)NC(=O)c1ccc(NC[C@@H](N)CS)cc1-c1cccc2ccccc12 [GGTI298 (Trifluoroacetate)] 0
COCCOc1cc(F)c2c(Nc3ccc(NC(=O)Cn4cc(C(C)C)nn4)cc3)ncnc2c1 [AZD3229 Tosylate] 0
CC(C)(C)n1nc(-c2cccc3ccccc23)c2c(N)ncnc21 [1-Naphthyl PP1] 0
N#CCNC(=O)c1ccc(-c2ccnc(Nc3ccc(N4CCOCC4)cc3)n2)cc1 [Momelotinib sulfate] 0
Cn1ncc(Cl)c1-c1cc(C(=O)N[C@H](CN)Cc2cccc(F)c2)sc1Cl [Afuresertib] 0
CNC(=O)c1ccc(Nc2ncc(C(F)(F)F)c(NCc3nccnc3N(C)S(C)(=O)=O)n2)cc1 [Defactinib] 0
O=C(O)c1ccc2c(c1)nc(Nc1cccc(Cl)c1)c1ccncc12 [Silmitasertib] 0
O=C(Nc1cnn2ccc(N3CCC[C@@H]3c3cc(F)ccc3F)nc12)N1CC[C@H](O)C1 [Larotrectinib] 0

Reprinted at random: 2 entries already listed, in no set order.
kinase-Nluc reporter destabilization hit call, inactive:
COC(=O)[C@H](CC(C)C)NC(=O)c1ccc(NC[C@@H](N)CS)cc1-c1cccc2ccccc12 [GGTI298 (Trifluoroacetate)] 0
CCS(=O)(=O)N1CCN(c2ccc(Nc3ncc(C(N)=O)c(NC4CC4)n3)cc2)CC1 [Cerdulatinib (hydrochloride)] 0

From the supplement of paper PMC12823440, “Inhibitors supercharge kinase turnover through native proteolytic circuits” (Nature, 2025)
